# Results from PubChem BioAssay AID2685 (National Center for Advancing Translational Sciences (NCATS), 2010).
# This is one part of the list. Shown are side measurements of this screen, not its main read-out; they come without a call. The list favours compounds with an active or inconclusive main result. Potencies come from curve fits of mixed quality, noted in brackets.
# Test: qHTS Assay for Lipid Storage Modulators in Drosophila S3 Cells;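 as to cell number change: cells counted by Cell Tracker Red CMTPX staining in the red channel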
# Settings: BODIPY lipid droplet fluorescence, 18-24 h; for cell number change: measured here: cell count max response, cells fed with added oleic acid
# Procedure, shortened: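 Drosophila S3 cells got compounds at several concentrations plus oleic acid (400 uM solution). Laser-scanning cytometry with 488 nm excitation read lipid droplets at 500-530 nm and cells at 575-640 nm. Percent activity was relative to 20 uM Triacsin C.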
# [1] = measured here: cell number channel AC50, cells fed with added oleic acid
# [2] = measured here: lipid fluorescence (Fed channel) AC50, cells fed with added oleic acid
Compound,cell number change [%],AC50 [1],AC50 [2]
Cn1nccc1C(=O)NC1CCCc2c1cnn2-c1ccc(F)cc1F (stereo not given),-64.1,"1.64 µM [falling, full curve]",
Cc1ccc(OCC(=O)NNC(=O)C(=O)NC(C)(C)C)cc1,15.7,,"6.51 µM [rising, single point]"
CCCc1[nH]nc2c1C(c1ccccc1OCC)C(C#N)=C(N)O2 (stereo not given),8.94,"0.00366 µM [rising, full curve, poor fit]",
O=c1ccc(-c2ccc(S(=O)(=O)Nc3ccccc3Cl)o2)n[nH]1,3.44,"6.51 µM [rising, single point]","29.1 µM [rising, single point]"
O=C(/C(=C/c1ccc(Cl)cc1)c1nc2ccccc2[nH]1)c1ccccc1,-24.6,,"18.4 µM [falling, single point]"
COc1ccc(CCNC(=O)CCNS(=O)(=O)c2cccc3nsnc23)cc1OC,83.5,"5.8 µM [rising, partial curve]","8.2 µM [rising, partial curve]"
CCN1CCN(C(=O)c2cc3cc(F)ccc3[nH]2)CC1,27.5,,"29.1 µM [rising, single point]"
O=C(CCC(=O)c1ccccc1)NCc1cccc(C(F)(F)F)c1,5.76,,
CCCn1c(=O)c(C(=O)NCc2ccccc2OC)c(O)c2ccccc21,8.04,,"7.31 µM [rising, partial curve, poor fit]"
Cn1cc(C(=O)N/N=C/c2cccc(O)c2)ccc1=O,87.5,,
N#CC(C#N)=CN=c1ccn(Cc2ccc(Cl)cc2Cl)cc1,-19,,"0.259 µM [falling, full curve, poor fit]"
Cc1cc2cc(CN(Cc3cccs3)C(=S)NCc3ccco3)c(=O)[nH]c2cc1C,-0.599,,"0.058 µM [rising, full curve, poor fit]"
O=C(NC1CCCc2ccccc21)c1cc(Cl)ccn1 (stereo not given),15.4,,
CC(C)CN1CCN(C2CCN(C(C)C)CC2)C(CCO)C1 (stereo not given),-14.4,,"7.31 µM [falling, partial curve, poor fit]"
CC(C)NC(=O)NC(=O)COC(=O)c1cc[n+]([O-])cc1,46.6,"25.9 µM [rising, single point]",
CCOC(=O)CCc1c(C)c2ccc(OC(C)C(=O)OCC)c(C)c2oc1=O (stereo not given),-33.9,"29.1 µM [falling, single point]",
COc1ccc(OC)c(C(=O)COC(=O)c2ccc(C)o2)c1,-35,"29.1 µM [falling, single point]",
CC1CCN(C(=O)c2[nH]cnc2C(=O)NCc2ccccc2)CC1,15.1,"2.06 µM [falling, single point]","2.06 µM [falling, partial curve]"
C/C(=N\NC(=O)c1ccc(O)cc1)c1cc2ccccc2o1,-10.2,,"0.0461 µM [rising, full curve, poor fit]"
CCOC(=O)c1cc2[nH]c3ccccc3c2[n+](-c2ccc([N+](=O)[O-])cc2)c1N,-12.2,"0.326 µM [rising, partial curve, poor fit]",
Cn1cccc1C(NC(=O)c1ccccc1)C(Cl)(Cl)Cl (stereo not given),-14.4,,

Compound,cell number change [%],AC50 [1],AC50 [2]
CC(=O)Nc1ccc(-n2cc(-c3ccccc3)[nH]c2=S)cc1,80.3,"8.2 µM [rising, partial curve]",
CC1(C)CC2(CCO1)OC(=O)CC2C(=O)NCc1ccccc1 (stereo not given),-38.4,"0.58 µM [falling, full curve]",
COc1cccc(NC(=O)CN(C)C(C)C(=O)Nc2ccc(S(=O)(=O)N3CCCC3)cc2)c1 (stereo not given),26.6,,
COc1ccc(C(=O)NC(=S)NNC(=O)c2ccc(NC(=O)C(C)C)cc2)cc1,,,"4.61 µM [falling, partial curve]"
CCOC(=O)C1CCCN(C(=O)c2cccc(S(=O)(=O)N3CCOCC3)c2)C1 (stereo not given),21.8,,"29.1 µM [rising, single point]"
Clc1ccc(CSc2nnnn2-c2ccc3c(c2)OCO3)c(Cl)c1,,"0.366 µM [rising, single point]","0.231 µM [rising, full curve, poor fit]"
Cn1c(-c2ccsc2)c(-c2cccs2)c2cc(-c3ccc4cc[nH]c4c3)ccc21,18.2,,"0.103 µM [rising, full curve, poor fit]"
O=c1c2ccccc2sn1-c1cc(S(=O)(=O)N2CCOCC2)ccc1N1CCOCC1,-86.5,"3.66 µM [falling, full curve]","4.11 µM [falling, full curve]"
O=C(N/N=C1\CC(c2ccccc2)Oc2ccccc21)c1ccccn1 (stereo not given),10.3,"6.51 µM [rising, single point]",
C=CCN1C(=O)c2ccc(C(=O)N3CCN(S(=O)(=O)c4cccc([N+](=O)[O-])c4)CC3)cc2C1=O,-22.9,,"0.146 µM [rising, full curve, poor fit]"
O=C(Cn1c(NCCO)nc2ccccc21)c1ccc([N+](=O)[O-])cc1,16.2,,
CCOC(=O)C1CCCN(C(=O)c2ccccc2NC(=O)C2=C(C)OCCS2)C1 (stereo not given),15.6,,"5.8 µM [rising, partial curve]"
CCOC(=O)/C=C/c1cnn(-c2ccccc2)c1,31.2,"2.06 µM [rising, full curve, poor fit]",
CCOc1nnc(C)c2c(C)n(-c3ccc(Cl)cc3)nc12,-15.2,,
O=C(c1nn(Cc2ccccc2)c(=O)c2ccccc12)N1CCN(c2ccccn2)CC1,-17.2,,
O=C1S/C(=C\c2ccccc2)C(=O)N1CC(O)Cn1c2ccccc2c2ccccc21 (stereo not given),,,"1.46 µM [falling, partial curve, poor fit]"
CC(C)(C)c1nnc(NC(=O)C2CCN(c3ncccn3)CC2)s1,9.91,,"18.4 µM [rising, single point]"
COc1ccc(NC(=O)COC(=O)c2ccc(N3CCCC3=O)cc2)cc1OC,-14.6,"2.59 µM [rising, partial curve, poor fit]","29.1 µM [falling, single point]"
CC1CCN(C(=O)c2ccc([N+](=O)[O-])o2)CC1,-22.2,,"29.1 µM [rising, single point]"
CCC(=O)c1ccccc1OCCCCn1cncn1,15.5,,"29.1 µM [rising, single point]"
CC(C)Nc1nc(Cl)nc(NNC(=O)C(C)Oc2ccccc2)n1 (stereo not given),-17.5,,

# Not a retest: an excerpt of the list.
Compound,cell number change [%],AC50 [1],AC50 [2]
CCC(=O)c1ccccc1OCCCCn1cncn1,15.5,,"29.1 µM [rising, single point]"
CC(C)Nc1nc(Cl)nc(NNC(=O)C(C)Oc2ccccc2)n1 (stereo not given),-17.5,,

# More entries:

Compound,cell number change [%],AC50 [1],AC50 [2]
CCc1ccc(C(=O)C(C)OC(=O)C2COc3ccccc3O2)cc1 (stereo not given),17.7,,
C=CCC(=O)N1CCC(n2nccc2NC(=O)CCOc2ccccc2)CC1,-14.7,,
COC(=O)C1=C(C(=O)OC)[C@@H]2N(C)c3ccc(OC)cc3[C@@]23C[C@@H](C(=O)OC)N(S(=O)(=O)c2ccc([N+](=O)[O-])cc2)C3=N1,9.49,,"0.00411 µM [rising, full curve, poor fit]"
Cc1ccc(NC(=O)Cc2cccs2)cc1Cl,-11.6,,"1.64 µM [falling, partial curve, poor fit]"
COc1ccc(NC(=O)COC(=O)Cn2nnc3ccccc32)cc1,-18.9,"0.092 µM [rising, full curve, poor fit]","3.66 µM [falling, single point]"
CCn1c2ccccc2c2cc(NC(=O)COc3ccccc3OC)ccc21,8.11,,"5.17 µM [rising, single point]"
Cc1cc(C)[n+](C)n1CC(O)Cn1c2ccccc2c2ccccc21 (stereo not given),-6.01,,
O=S(=O)(Nc1cccc(-n2cnnn2)c1)c1ccc(Cl)nc1,20.1,,
Cc1cccc(-n2nc(C(=O)c3ccco3)cc(-c3nc4ccccc4[nH]3)c2=N)c1,-51.4,"4.61 µM [falling, full curve]","5.8 µM [falling, full curve]"
CCN(CCO)C(=O)c1ccc2nc(Cc3cccc(Cl)c3)oc2c1,-0.549,,"20.6 µM [rising, single point]"
Cc1ccc(Cl)cc1NC(=O)COC(=O)CN1C(=O)C2CCCCC2C1=O (stereo not given),17.9,,"25.9 µM [rising, partial curve]"
COCCNc1ccc(N2C(=O)C3CCCCC3C2=O)cc1[N+](=O)[O-] (stereo not given),-43.4,"23.1 µM [falling, single point]",
O=C(NCCc1ccccc1)C1CCC(=O)N(Cc2ccc(Cl)cc2)C1 (stereo not given),46.7,"20.6 µM [rising, partial curve, poor fit]",
CN(Cc1ccc(Cl)cc1Cl)C(=O)CN1C(=O)NC2(CCCC2)C1=O,-14,,"0.0651 µM [rising, full curve, poor fit]"
CN(Cc1c(C(=O)N/N=C/c2ccccc2)nnn1-c1nonc1N)c1ccccc1,,,"0.231 µM [falling, full curve, poor fit]"
COc1ccc(-n2c(C)cc(C)c(C(C)=O)c2=S)cc1,13.1,,"7.31 µM [falling, partial curve, poor fit]"
CCC(C(=O)NCCN1CCOCC1)n1nc(C)n2c(cc3sccc32)c1=O (stereo not given),-9.73,,"0.58 µM [rising, single point]"
O=C(COC(=O)C1CCN(S(=O)(=O)c2ccc3c(c2)OCCO3)CC1)NC1CCS(=O)(=O)C1 (stereo not given),6.14,,"0.231 µM [falling, full curve]"
COc1ccc(OC(=O)c2cn(C)nc2C(F)(F)F)cc1,-11.8,,"3.66 µM [falling, single point]"
CCOc1ccc(OCCSc2nc3ccccc3o2)cc1,-5.58,,"6.51 µM [falling, single point]"

# Of the compounds above, eleven contain an aryl methoxy group:
Compound,cell number change [%],AC50 [1],AC50 [2]
COc1ccc(CCNC(=O)CCNS(=O)(=O)c2cccc3nsnc23)cc1OC,83.5,"5.8 µM [rising, partial curve]","8.2 µM [rising, partial curve]"
CCCn1c(=O)c(C(=O)NCc2ccccc2OC)c(O)c2ccccc21,8.04,,"7.31 µM [rising, partial curve, poor fit]"
COc1ccc(OC)c(C(=O)COC(=O)c2ccc(C)o2)c1,-35,"29.1 µM [falling, single point]",
COc1cccc(NC(=O)CN(C)C(C)C(=O)Nc2ccc(S(=O)(=O)N3CCCC3)cc2)c1 (stereo not given),26.6,,
COc1ccc(C(=O)NC(=S)NNC(=O)c2ccc(NC(=O)C(C)C)cc2)cc1,,,"4.61 µM [falling, partial curve]"
COc1ccc(NC(=O)COC(=O)c2ccc(N3CCCC3=O)cc2)cc1OC,-14.6,"2.59 µM [rising, partial curve, poor fit]","29.1 µM [falling, single point]"
COC(=O)C1=C(C(=O)OC)[C@@H]2N(C)c3ccc(OC)cc3[C@@]23C[C@@H](C(=O)OC)N(S(=O)(=O)c2ccc([N+](=O)[O-])cc2)C3=N1,9.49,,"0.00411 µM [rising, full curve, poor fit]"
COc1ccc(NC(=O)COC(=O)Cn2nnc3ccccc32)cc1,-18.9,"0.092 µM [rising, full curve, poor fit]","3.66 µM [falling, single point]"
CCn1c2ccccc2c2cc(NC(=O)COc3ccccc3OC)ccc21,8.11,,"5.17 µM [rising, single point]"
COc1ccc(-n2c(C)cc(C)c(C(C)=O)c2=S)cc1,13.1,,"7.31 µM [falling, partial curve, poor fit]"
COc1ccc(OC(=O)c2cn(C)nc2C(F)(F)F)cc1,-11.8,,"3.66 µM [falling, single point]"
